Measurements: publication PMC11949052
These are yes or no findings as the source states them, for the method shown. Some results given as binding are weak or reduced against the parent protein; the word gives no strength.

The chains behind the UniProt entries cited, without tags or fusion partners. Where a name states a change or a piece, a line headed by the entry shows the natural chain unless it says otherwise.
UniProt P03952: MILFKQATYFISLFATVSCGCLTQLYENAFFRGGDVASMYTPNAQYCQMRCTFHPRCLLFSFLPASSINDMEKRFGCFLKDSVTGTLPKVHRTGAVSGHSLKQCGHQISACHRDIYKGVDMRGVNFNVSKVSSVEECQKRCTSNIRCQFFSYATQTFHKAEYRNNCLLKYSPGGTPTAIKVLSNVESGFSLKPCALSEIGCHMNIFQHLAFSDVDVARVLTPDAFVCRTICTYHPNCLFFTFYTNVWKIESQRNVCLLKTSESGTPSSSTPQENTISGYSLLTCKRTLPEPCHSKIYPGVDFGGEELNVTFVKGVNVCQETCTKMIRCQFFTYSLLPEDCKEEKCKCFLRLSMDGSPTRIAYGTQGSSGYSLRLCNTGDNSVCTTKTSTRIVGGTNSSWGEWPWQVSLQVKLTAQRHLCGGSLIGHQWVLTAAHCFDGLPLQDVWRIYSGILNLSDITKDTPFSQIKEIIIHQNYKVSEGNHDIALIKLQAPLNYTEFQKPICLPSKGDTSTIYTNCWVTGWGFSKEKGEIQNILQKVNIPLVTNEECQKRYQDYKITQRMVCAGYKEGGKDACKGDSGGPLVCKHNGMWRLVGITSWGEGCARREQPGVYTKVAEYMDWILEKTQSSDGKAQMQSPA

T1: activated C1s (C1s̄) (UniProt P09871)
T1 sequence (chain, biotinylated | biotinylated) 1: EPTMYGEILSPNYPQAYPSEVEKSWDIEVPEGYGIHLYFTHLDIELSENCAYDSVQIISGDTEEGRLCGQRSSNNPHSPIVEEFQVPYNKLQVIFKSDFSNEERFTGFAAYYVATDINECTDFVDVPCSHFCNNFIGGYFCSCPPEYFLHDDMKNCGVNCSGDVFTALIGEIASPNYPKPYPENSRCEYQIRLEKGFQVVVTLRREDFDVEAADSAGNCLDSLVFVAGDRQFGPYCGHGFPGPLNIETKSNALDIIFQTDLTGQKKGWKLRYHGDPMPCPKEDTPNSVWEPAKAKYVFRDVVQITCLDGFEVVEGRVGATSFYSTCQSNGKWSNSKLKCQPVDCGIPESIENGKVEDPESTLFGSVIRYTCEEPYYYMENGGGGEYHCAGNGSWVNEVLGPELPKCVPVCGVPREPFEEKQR
T1 sequence (chain, biotinylated | biotinylated) 2: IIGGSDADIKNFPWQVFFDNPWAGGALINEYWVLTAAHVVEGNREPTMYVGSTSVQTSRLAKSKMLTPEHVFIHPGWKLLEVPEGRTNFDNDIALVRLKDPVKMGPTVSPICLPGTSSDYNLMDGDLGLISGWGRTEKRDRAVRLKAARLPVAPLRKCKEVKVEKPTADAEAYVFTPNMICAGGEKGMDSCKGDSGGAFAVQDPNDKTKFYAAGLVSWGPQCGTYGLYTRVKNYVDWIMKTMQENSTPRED


Assays:
activated C1s (C1s̄) = target: T1, activated C1s (C1s̄); experiment: ELISA; Quidel kit: C1-INH (transfectant supernatant) incubated with biotinylated C1s̄, the complex captured on streptavidin-coated wells, detected with goat anti-human C1-INH Ab; C1-INH at 125 ng/mL, 250 ng/mL, 500 ng/mL and 1 μg/mL; relative absorbance (450 nm) against WT; only the target purified
kallikrein (PKa) (human) = kallikrein (PKa) (human) (UniProt P03952); experiment: ELISA; biotinylated FXIIa or PKa (25 μL of 2 μg/mL) with an equivalent molar amount of C1-INH (transfectant supernatant) in 2% BSA in PBS-T on a streptavidin-coated plate, 1 hour at 37°C; bound complex detected with anti-C1-INH mAb; serially diluted samples; relative absorbance against WT; only the target purified

binding (activated C1s (C1s̄)) | binding (kallikrein (PKa) (human)) | Binder
binds | – | C1-INH S275del (protein, UniProt P05155 23-500) NPNATSSSSQDPESLQDRGEGKVATTVISKMLFVEPILEVSSLPTTNSTTNSATKITANTTDEPTTQPTTEPTTQPTIQPTQPTTQLPTDSPTQPTTGSFCPGPVTLCSDLESHSTEAVLGDALVDFSLKLYHAFSAMKKVETNMAFSPFSIASLLTQVLLGAGENTKTNLESILSYPKDFTCVHQALKGFTTKGVTSVSQIFHSPDLAIRDTFVNASRTLYSSSPRVLSNNSDANLELINTWVAKNTNNKIRLLDSLPSDTRLVLLNAIYLSAKWKTTFDPKKTRMEPFHFKNSVIKVPMMNSKKYPVAHFIDQTLKAKVGQLQLSHNLSLVILVPQNLKHRLEDMEQALSPSVFKAIMEKLEMSKFQPTLLTLPRIKVTTSQDMLSIMEKLEFFDFSYDLNLCGLTEDPDLQVSAMQHQTVLELTETGVEAAAASAISVARTLLVFEVQQPFLFVLWDQQHKFPVFMGRVYDPRA
binds | binds | C1-INH S255del (protein, UniProt P05155 23-500) NPNATSSSSQDPESLQDRGEGKVATTVISKMLFVEPILEVSSLPTTNSTTNSATKITANTTDEPTTQPTTEPTTQPTIQPTQPTTQLPTDSPTQPTTGSFCPGPVTLCSDLESHSTEAVLGDALVDFSLKLYHAFSAMKKVETNMAFSPFSIASLLTQVLLGAGENTKTNLESILSYPKDFTCVHQALKGFTTKGVTSVSQIFHSPDLAIRDTFVNASRTLYSSSPRVLSNNDANLELINTWVAKNTNNKISRLLDSLPSDTRLVLLNAIYLSAKWKTTFDPKKTRMEPFHFKNSVIKVPMMNSKKYPVAHFIDQTLKAKVGQLQLSHNLSLVILVPQNLKHRLEDMEQALSPSVFKAIMEKLEMSKFQPTLLTLPRIKVTTSQDMLSIMEKLEFFDFSYDLNLCGLTEDPDLQVSAMQHQTVLELTETGVEAAAASAISVARTLLVFEVQQPFLFVLWDQQHKFPVFMGRVYDPRA
binds | binds | C1-INH N352A (protein, UniProt P05155 23-500) NPNATSSSSQDPESLQDRGEGKVATTVISKMLFVEPILEVSSLPTTNSTTNSATKITANTTDEPTTQPTTEPTTQPTIQPTQPTTQLPTDSPTQPTTGSFCPGPVTLCSDLESHSTEAVLGDALVDFSLKLYHAFSAMKKVETNMAFSPFSIASLLTQVLLGAGENTKTNLESILSYPKDFTCVHQALKGFTTKGVTSVSQIFHSPDLAIRDTFVNASRTLYSSSPRVLSNNSDANLELINTWVAKNTNNKISRLLDSLPSDTRLVLLNAIYLSAKWKTTFDPKKTRMEPFHFKNSVIKVPMMNSKKYPVAHFIDQTLKAKVGQLQLSHALSLVILVPQNLKHRLEDMEQALSPSVFKAIMEKLEMSKFQPTLLTLPRIKVTTSQDMLSIMEKLEFFDFSYDLNLCGLTEDPDLQVSAMQHQTVLELTETGVEAAAASAISVARTLLVFEVQQPFLFVLWDQQHKFPVFMGRVYDPRA
binds | binds | C1-INH N352I (protein, UniProt P05155 23-500) NPNATSSSSQDPESLQDRGEGKVATTVISKMLFVEPILEVSSLPTTNSTTNSATKITANTTDEPTTQPTTEPTTQPTIQPTQPTTQLPTDSPTQPTTGSFCPGPVTLCSDLESHSTEAVLGDALVDFSLKLYHAFSAMKKVETNMAFSPFSIASLLTQVLLGAGENTKTNLESILSYPKDFTCVHQALKGFTTKGVTSVSQIFHSPDLAIRDTFVNASRTLYSSSPRVLSNNSDANLELINTWVAKNTNNKISRLLDSLPSDTRLVLLNAIYLSAKWKTTFDPKKTRMEPFHFKNSVIKVPMMNSKKYPVAHFIDQTLKAKVGQLQLSHILSLVILVPQNLKHRLEDMEQALSPSVFKAIMEKLEMSKFQPTLLTLPRIKVTTSQDMLSIMEKLEFFDFSYDLNLCGLTEDPDLQVSAMQHQTVLELTETGVEAAAASAISVARTLLVFEVQQPFLFVLWDQQHKFPVFMGRVYDPRA
binds | binds | C1-INH S354G (protein, UniProt P05155 23-500) NPNATSSSSQDPESLQDRGEGKVATTVISKMLFVEPILEVSSLPTTNSTTNSATKITANTTDEPTTQPTTEPTTQPTIQPTQPTTQLPTDSPTQPTTGSFCPGPVTLCSDLESHSTEAVLGDALVDFSLKLYHAFSAMKKVETNMAFSPFSIASLLTQVLLGAGENTKTNLESILSYPKDFTCVHQALKGFTTKGVTSVSQIFHSPDLAIRDTFVNASRTLYSSSPRVLSNNSDANLELINTWVAKNTNNKISRLLDSLPSDTRLVLLNAIYLSAKWKTTFDPKKTRMEPFHFKNSVIKVPMMNSKKYPVAHFIDQTLKAKVGQLQLSHNLGLVILVPQNLKHRLEDMEQALSPSVFKAIMEKLEMSKFQPTLLTLPRIKVTTSQDMLSIMEKLEFFDFSYDLNLCGLTEDPDLQVSAMQHQTVLELTETGVEAAAASAISVARTLLVFEVQQPFLFVLWDQQHKFPVFMGRVYDPRA
binds | binds | C1-INH N352S (protein, UniProt P05155 23-500) NPNATSSSSQDPESLQDRGEGKVATTVISKMLFVEPILEVSSLPTTNSTTNSATKITANTTDEPTTQPTTEPTTQPTIQPTQPTTQLPTDSPTQPTTGSFCPGPVTLCSDLESHSTEAVLGDALVDFSLKLYHAFSAMKKVETNMAFSPFSIASLLTQVLLGAGENTKTNLESILSYPKDFTCVHQALKGFTTKGVTSVSQIFHSPDLAIRDTFVNASRTLYSSSPRVLSNNSDANLELINTWVAKNTNNKISRLLDSLPSDTRLVLLNAIYLSAKWKTTFDPKKTRMEPFHFKNSVIKVPMMNSKKYPVAHFIDQTLKAKVGQLQLSHSLSLVILVPQNLKHRLEDMEQALSPSVFKAIMEKLEMSKFQPTLLTLPRIKVTTSQDMLSIMEKLEFFDFSYDLNLCGLTEDPDLQVSAMQHQTVLELTETGVEAAAASAISVARTLLVFEVQQPFLFVLWDQQHKFPVFMGRVYDPRA

The remaining lines, values behind:

Binder | binding (activated C1s (C1s̄)) | binding (kallikrein (PKa) (human))
C1-INH N253del (protein, UniProt P05155 23-500) NPNATSSSSQDPESLQDRGEGKVATTVISKMLFVEPILEVSSLPTTNSTTNSATKITANTTDEPTTQPTTEPTTQPTIQPTQPTTQLPTDSPTQPTTGSFCPGPVTLCSDLESHSTEAVLGDALVDFSLKLYHAFSAMKKVETNMAFSPFSIASLLTQVLLGAGENTKTNLESILSYPKDFTCVHQALKGFTTKGVTSVSQIFHSPDLAIRDTFVNASRTLYSSSPRVLSNSDANLELINTWVAKNTNNKISRLLDSLPSDTRLVLLNAIYLSAKWKTTFDPKKTRMEPFHFKNSVIKVPMMNSKKYPVAHFIDQTLKAKVGQLQLSHNLSLVILVPQNLKHRLEDMEQALSPSVFKAIMEKLEMSKFQPTLLTLPRIKVTTSQDMLSIMEKLEFFDFSYDLNLCGLTEDPDLQVSAMQHQTVLELTETGVEAAAASAISVARTLLVFEVQQPFLFVLWDQQHKFPVFMGRVYDPRA | binds | binds
C1-INH N254del (protein, UniProt P05155 23-500) NPNATSSSSQDPESLQDRGEGKVATTVISKMLFVEPILEVSSLPTTNSTTNSATKITANTTDEPTTQPTTEPTTQPTIQPTQPTTQLPTDSPTQPTTGSFCPGPVTLCSDLESHSTEAVLGDALVDFSLKLYHAFSAMKKVETNMAFSPFSIASLLTQVLLGAGENTKTNLESILSYPKDFTCVHQALKGFTTKGVTSVSQIFHSPDLAIRDTFVNASRTLYSSSPRVLSNSDANLELINTWVAKNTNNKISRLLDSLPSDTRLVLLNAIYLSAKWKTTFDPKKTRMEPFHFKNSVIKVPMMNSKKYPVAHFIDQTLKAKVGQLQLSHNLSLVILVPQNLKHRLEDMEQALSPSVFKAIMEKLEMSKFQPTLLTLPRIKVTTSQDMLSIMEKLEFFDFSYDLNLCGLTEDPDLQVSAMQHQTVLELTETGVEAAAASAISVARTLLVFEVQQPFLFVLWDQQHKFPVFMGRVYDPRA | binds | binds
C1-INH N253A (protein, UniProt P05155 23-500) NPNATSSSSQDPESLQDRGEGKVATTVISKMLFVEPILEVSSLPTTNSTTNSATKITANTTDEPTTQPTTEPTTQPTIQPTQPTTQLPTDSPTQPTTGSFCPGPVTLCSDLESHSTEAVLGDALVDFSLKLYHAFSAMKKVETNMAFSPFSIASLLTQVLLGAGENTKTNLESILSYPKDFTCVHQALKGFTTKGVTSVSQIFHSPDLAIRDTFVNASRTLYSSSPRVLSANSDANLELINTWVAKNTNNKISRLLDSLPSDTRLVLLNAIYLSAKWKTTFDPKKTRMEPFHFKNSVIKVPMMNSKKYPVAHFIDQTLKAKVGQLQLSHNLSLVILVPQNLKHRLEDMEQALSPSVFKAIMEKLEMSKFQPTLLTLPRIKVTTSQDMLSIMEKLEFFDFSYDLNLCGLTEDPDLQVSAMQHQTVLELTETGVEAAAASAISVARTLLVFEVQQPFLFVLWDQQHKFPVFMGRVYDPRA | binds | binds
C1-INH N254A (protein, UniProt P05155 23-500) NPNATSSSSQDPESLQDRGEGKVATTVISKMLFVEPILEVSSLPTTNSTTNSATKITANTTDEPTTQPTTEPTTQPTIQPTQPTTQLPTDSPTQPTTGSFCPGPVTLCSDLESHSTEAVLGDALVDFSLKLYHAFSAMKKVETNMAFSPFSIASLLTQVLLGAGENTKTNLESILSYPKDFTCVHQALKGFTTKGVTSVSQIFHSPDLAIRDTFVNASRTLYSSSPRVLSNASDANLELINTWVAKNTNNKISRLLDSLPSDTRLVLLNAIYLSAKWKTTFDPKKTRMEPFHFKNSVIKVPMMNSKKYPVAHFIDQTLKAKVGQLQLSHNLSLVILVPQNLKHRLEDMEQALSPSVFKAIMEKLEMSKFQPTLLTLPRIKVTTSQDMLSIMEKLEFFDFSYDLNLCGLTEDPDLQVSAMQHQTVLELTETGVEAAAASAISVARTLLVFEVQQPFLFVLWDQQHKFPVFMGRVYDPRA | binds | binds
